Source: patent US8110687B2, “Bicyclic compounds with kinase inhibitory activity” (Millennium Pharmaceuticals, Inc., priority 2005, dated 2012)
Like-named read-outs stand apart in the source and are kept apart here. Some entries share one result that the patent states for a list of compounds.

By UniProt entry, the sequences of proteins in these tests, tags left out.
UniProt P15056, whole entry, stated change not applied: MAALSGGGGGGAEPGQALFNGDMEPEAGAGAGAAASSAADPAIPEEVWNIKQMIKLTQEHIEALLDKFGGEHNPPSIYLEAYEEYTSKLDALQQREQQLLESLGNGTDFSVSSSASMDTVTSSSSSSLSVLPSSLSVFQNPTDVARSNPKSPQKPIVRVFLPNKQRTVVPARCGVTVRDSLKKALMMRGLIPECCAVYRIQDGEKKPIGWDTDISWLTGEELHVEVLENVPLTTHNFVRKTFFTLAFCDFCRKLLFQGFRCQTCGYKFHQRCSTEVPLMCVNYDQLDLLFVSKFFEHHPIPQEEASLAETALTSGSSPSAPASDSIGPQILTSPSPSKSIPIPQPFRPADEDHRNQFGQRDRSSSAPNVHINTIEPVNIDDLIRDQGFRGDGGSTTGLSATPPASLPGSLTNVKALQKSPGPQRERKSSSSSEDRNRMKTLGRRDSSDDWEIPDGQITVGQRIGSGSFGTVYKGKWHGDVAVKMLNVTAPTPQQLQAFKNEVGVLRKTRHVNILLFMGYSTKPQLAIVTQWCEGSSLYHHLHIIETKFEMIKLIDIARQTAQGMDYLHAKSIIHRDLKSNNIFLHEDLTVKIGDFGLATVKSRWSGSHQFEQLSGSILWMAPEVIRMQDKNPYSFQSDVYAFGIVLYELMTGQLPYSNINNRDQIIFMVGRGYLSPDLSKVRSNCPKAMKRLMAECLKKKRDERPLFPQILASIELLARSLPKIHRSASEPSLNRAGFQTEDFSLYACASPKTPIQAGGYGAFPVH

Target: B-Raf (V599E or Wild Type) (Homo sapiens, UniProt P15056)
Experiment: B-Raf Flash Plate assay
Assay type: biochemical
Conditions: Peptide 118, 0.5 μM ATP, 60 minutes
[1] = read-out: IC50, inhibition of the enzyme in B-Raf Flash Plate assay
[2] = read-out: IC50 in B-Raf Flash Plate assay

`CCNC(=O)NCc1cc(NC(=O)C2CCc3ccc(Oc4ccnc(C(=O)NC)c4)cc3C2)cc(C(F)(F)F)c1` (centres unmarked) [Compound I-420, 4-{[7-({[3-({[(ethylamino)carbonyl]amino}methyl)-5-(trifluoromethyl)phenyl]amino}carbonyl)-5,6,7,8-tetrahydronaphthalen-2-yl]-oxy}-N-methylpyridine-2-carboxamide] showed an IC50 [1] of no more than 1 µM and an IC50 [2] of less than 0.05 µM.
Molecule `CC(C)(C)c1cccc(NC(=O)c2ccc3ccc(Oc4ccnc(NC(=O)CN5CCCC5)c4)cc3c2)c1` [Compound I-306, N-(3-tert-butylphenyl)-7-({2-[(pyrrolidin-1-ylacetyl)amino]pyridin-4-yl}oxy)-2-naphthamide] has an IC50 [1] of no more than 1 µM and an IC50 [2] of less than 0.05 µM.
Molecule `CNC(=O)c1cc(Oc2ccc3ccc(C(=O)Nc4cc(OC5CCNCC5)cc(C(F)(F)F)c4)cc3c2)ccn1` [Compound I-9, N-methyl-4-{[7-({[3-(piperidin-4-yloxy)-5-(trifluoromethyl)phenyl]amino}carbonyl)-2-naphthyl]oxy}pyridine-2-carboxamide] has an IC50 [1] of no more than 1 µM and an IC50 [2] of less than 0.05 µM.
For `COc1cccc(NC(=O)C2CCc3ccc(Oc4ccnc(NC(C)=O)c4)cc3C2)c1` (centres unmarked) [Compound I-319, 7-{[2-(acetylamino)pyridin-4-yl]oxy}-N-(3-methoxyphenyl)-1,2,3,4-tetrahydronaphthalene-2-carboxamide], the IC50 [1] was no more than 1 µM and the IC50 [2] was less than 0.05 µM.
For `CNC(=O)c1cc(Oc2ccc3ccc(C(=O)Nc4cc(OCCN5CCCC5)cc(C(F)(F)F)c4)cc3c2)ccn1` [Compound I-52, N-methyl-4-{[7-({[3-(2-pyrrolidin-1-ylethoxy)-5-(trifluoromethyl)phenyl]amino}carbonyl)-2-naphthyl]oxy}pyridine-2-carboxamide], the IC50 [1] was no more than 1 µM and the IC50 [2] was less than 0.05 µM.
`CC(C)(C)c1cccc(NC(=O)C2CCc3ccc(Oc4ccnc(N5CCNCC5)c4)cc3C2)c1` (centres unmarked) [Compound I-278, N-(3-tert-butylphenyl)-7-[(2-piperazin-1-ylpyridin-4-yl)oxy]-1,2,3,4-tetrahydronaphthalene-2-carboxamide] gave an IC50 [1] of no more than 1 µM.
Molecule `O=C(Nc1ccc(Cl)c(C(F)(F)F)c1)C1CCc2cccc(Oc3ccnc(C4=NCCN4)c3)c2C1` (centres unmarked) [Compound I-21, N-[4-chloro-3-(trifluoromethyl)phenyl]-8-{[2-(4,5-dihydro-1H-imidazol-2-yl)pyridin-4-yl]oxy}-1,2,3,4-tetrahydronaphthalene-2-carboxamide] has an IC50 [1] of no more than 1 µM.
`CC(=O)Nc1cc(Oc2ccc3c(c2)CC(C(=O)Nc2ccc(C(F)(F)F)cc2)CC3)ccn1` (centres unmarked) [Compound I-281, 7-{[2-(acetylamino)pyridin-4-yl]oxy}-N-[4-(trifluoromethyl)phenyl]-1,2,3,4-tetrahydronaphthalene-2-carboxamide] was tested, and the IC50 [1] was no more than 1 µM and the IC50 [2] was less than 0.05 µM.
Molecule `CC(C)(C)c1cccc(NC(=O)c2ccc3ccc(Oc4ccnc(-c5nc(CO)c[nH]5)c4)cc3c2)c1` [Compound I-455, N-(3-tert-butylphenyl)-7-({2-[4-(hydroxymethyl)-1H-imidazol-2-yl]pyridin-4-yl}oxy)-2-naphthamide] has an IC50 [1] of no more than 1 µM and an IC50 [2] of less than 0.05 µM.
With `CN(Cc1ccccc1)c1cc(Oc2ccc3c(c2)CC(C(=O)Nc2cccc(C(C)(C)C)c2)CC3)ccn1` (centres unmarked) [Compound I-367, 7-({2-[benzyl(methyl)amino]pyridin-4-yl}oxy)-N-(3-tert-butylphenyl)-1,2,3,4-tetrahydronaphthalene-2-carboxamide] the IC50 [1] was no more than 1 µM.
`CC(=O)Nc1cc(Oc2ccc3c(c2)CC(NC(=O)c2cc(CN)cc(C(F)(F)F)c2)CC3)ccn1` (centres unmarked) [Compound I-441, N-(7-{[2-(acetylamino)pyridin-4-yl]oxy}-1,2,3,4-tetrahydronaphthalen-2-yl)-3-(aminomethyl)-5-(trifluoromethyl)benzamide] was tested, and the IC50 [1] was no more than 1 µM and the IC50 [2] was less than 0.05 µM.
In the case of `CN1CCN(Cc2cnc(-c3cc(Oc4ccc5c(c4)CC(C(=O)Nc4cccc(C(C)(C)C)c4)CC5)ccn3)[nH]2)CC1` (centres unmarked) [Compound I-156, N-(3-tert-Butylphenyl)-7-[(2-{5-[(4-methylpiperazin-1-yl)methyl]-1H-imidazol-2-yl}pyridin-4-yl)oxy]-1,2,3,4-tetrahydronaphthalene-2-carboxamide], the IC50 [1] is reported as no more than 1 µM and the IC50 [2] is reported as less than 0.05 µM.
For `CC(=O)Nc1cc(Oc2ccc3ccc(C(=O)Nc4cc(C(C)(C)C)no4)cc3c2)ccn1` [Compound I-149, 7-{[2-(acetylamino)pyridin-4-yl]oxy}-N-(3-tert-butylisoxazol-5-yl)-2-naphthamide], the IC50 [1] was no more than 1 µM and the IC50 [2] was less than 0.05 µM.
`O=C(NC1CCc2ccc(Oc3ccnc(NC(=O)C4CC4)c3)cc2C1)c1ccc(Cl)c(C(F)(F)F)c1` (centres unmarked) [Compound I-443, 4-chloro-N-[7-({2-[(cyclopropylcarbonyl)amino]pyridin-4-yl}oxy)-1,2,3,4-tetrahydronaphthalen-2-yl]-3-(trifluoromethyl)benzamide] gave an IC50 [1] of no more than 1 µM and an IC50 [2] of less than 0.05 µM.
Work on `NCc1cc(C(=O)NC2CCc3ccc(Oc4ccnc(NC(=O)C5CC5)c4)cc3C2)cc(C(F)(F)F)c1` (centres unmarked) [Compound I-437, 3-(aminomethyl)-N-[7-({2-[(cyclopropylcarbonyl)amino]pyridin-4-yl}oxy)-1,2,3,4-tetrahydronaphthalen-2-yl]-5-(trifluoromethyl)benzamide] yielded an IC50 [1] of no more than 1 µM and an IC50 [2] of less than 0.05 µM.
Molecule `CC(=O)Nc1cc(Oc2ccc3c(c2)CC(NC(=O)c2cc(CN)cc(C(C)(C)C)c2)CC3)ccn1` (centres unmarked) [Compound I-426, N-(7-{[2-(acetylamino)pyridin-4-yl]oxy}-1,2,3,4-tetrahydronaphthalen-2-yl)-3-(aminomethyl)-5-tert-butylbenzamide] has an IC50 [1] of no more than 1 µM and an IC50 [2] of less than 0.05 µM.
`CNC(=O)c1cc(Oc2ccc3c(c2)CC(C(=O)Nc2cc(CN4CCCC4)cc(C(F)(F)F)c2)CC3)ccn1` (centres unmarked) [Compound I-379, N-methyl-4-{[7-({[3-(pyrrolidin-1-ylmethyl)-5-(trifluoromethyl)phenyl]amino}carbonyl)-5,6,7,8-tetrahydronaphthalen-2-yl]oxy}pyridine-2-carboxamide] was tested, and the IC50 [1] was no more than 1 µM and the IC50 [2] was less than 0.05 µM.
In the case of `CCNC(=N)c1cc(Oc2ccc3ccc(C(=O)Nc4cccc(C(C)(C)C)c4)cc3c2)ccn1` [Compound I-317, N-(3-tert-butylphenyl)-7-({2-[(ethylamino)(imino)methyl]pyridin-4-yl}oxy)-2-naphthamide], the IC50 [1] is reported as no more than 1 µM and the IC50 [2] is reported as less than 0.05 µM.
`NCc1cc(NC(=O)N2CCc3ccc(Oc4ccnc(NC(=O)C5CC5)c4)cc3C2)cc(C(F)(F)F)c1` [Compound I-446, N-[3-(aminomethyl)-5-(trifluoromethyl)phenyl]-7-({2-[(cyclopropylcarbonyl)amino]pyridin-4-yl}oxy)-3,4-dihydroisoquinoline-2(1H)-carboxamide] was tested, and the IC50 [1] was no more than 1 µM and the IC50 [2] was less than 0.05 µM.
`CC(C)(C)c1cccc(NC(=O)C2CCc3ccc(Oc4ccnc(-c5cc[nH]n5)c4)cc3C2)c1` (centres unmarked) [Compound I-231, N-(3-tert-butylphenyl)-7-{[2-(1H-pyrazol-3-yl)-pyridin-4-yl]oxy}-1,2,3,4-tetrahydronaphthalene-2-carboxamide] gave an IC50 [1] of no more than 1 µM.
In the case of `CNC(=O)c1cc(Oc2ccc3c(c2)CC(C(=O)Nc2cccc(C(C)(C)C)c2)CC3)ccn1` (centres unmarked) [Compound I-23, 4-[(7-{[(3-tert-butylphenyl)amino]carbonyl}-5,6,7,8-tetrahydronaphthalen-2-yl)oxy]-N-methylpyridine-2-carboxamide], the IC50 [1] is reported as no more than 1 µM and the IC50 [2] is reported as less than 0.05 µM.
Molecule `O=C(Nc1ccc(Cl)c(C(F)(F)F)c1)c1cc2cc(Oc3ccnc(C4=NCCN4)c3)ccc2cn1` [Compound I-35, N-[4-chloro-3-(trifluoromethyl)phenyl]-6-{[2-(4,5-dihydro-1H-imidazol-2-yl)pyridin-4-yl]oxy}isoquinoline-3-carboxamide] has an IC50 [1] of no more than 1 µM.
For `O=C(Nc1cc(OCCN2CCCC2)cc(C(F)(F)F)c1)c1cnc2ccc(Oc3ccnc(-c4ncc[nH]4)c3)cc2c1` [Compound I-341, 6-{[2-(1H-imidazol-2-yl)pyridin-4-yl]oxy}-N-[3-(2-pyrrolidin-1-ylethoxy)-5-(trifluoromethyl)phenyl]quinoline-3-carboxamide], the IC50 [1] was no more than 1 µM and the IC50 [2] was less than 0.05 µM.
For `CC(C)(C)c1cccc(NC(=O)c2ccc3ccc(Oc4ccnc(NC(=O)OCCN5CCOCC5)c4)cc3c2)c1` [Compound I-322, 2-morpholin-4-ylethyl {4-[(7-{[(3-tert-butylphenyl)amino]carbonyl}-2-naphthyl)oxy]pyridin-2-yl}carbamate], the IC50 [1] was no more than 1 µM and the IC50 [2] was less than 0.05 µM.
`CNC(=O)c1cc(Oc2ccc3c(c2)CC(C(=O)Nc2ccc(CN4CCN(C)CC4)c(C(F)(F)F)c2)CC3)ccn1` (centres unmarked) [Compound I-128, N-methyl-4-{[7-({[4-[(4-methylpiperazin-1-yl)methyl]-3-(trifluoromethyl)phenyl]amino}carbonyl)-5,6,7,8-tetrahydronaphthalen-2-yl]oxy}pyridine-2-carboxamide] gave an IC50 [1] of no more than 1 µM.
`CC(C)(C)c1cccc(NC(=O)C2CCc3ccc(Oc4ccnc(N5CCCNC5=O)c4)cc3C2)c1` (centres unmarked) [Compound I-408, N-(3-tert-butylphenyl)-7-{[2-(2-oxotetrahydropyrimidin-1(2H)-yl)pyridin-4-yl]-oxy}-1,2,3,4-tetrahydronaphthalene-2-carboxamide] gave an IC50 [1] of no more than 1 µM and an IC50 [2] of less than 0.05 µM.
`CC(=O)Nc1cc(Oc2ccc3c(c2)CC(C(=O)Nc2cc(C(C)(C)O)cc(C(F)(F)F)c2)CC3)ccn1` (centres unmarked) [Compound I-209, 7-{[2-(acetylamino)pyridin-4-yl]oxy}-N-[3-(1-hydroxy-1-methylethyl)-5-(trifluoromethyl)phenyl]-1,2,3,4-tetrahydronaphthalene-2-carboxamide] was tested, and the IC50 [1] was no more than 1 µM and the IC50 [2] was less than 0.05 µM.
Work on `CC(C)NC(=N)c1cc(Oc2ccc3c(c2)CC(C(=O)Nc2cccc(C(C)(C)C)c2)CC3)ccn1` (centres unmarked) [Compound I-77, N-(3-tert-butylphenyl)-7-({2-[imino(isopropylamino)methyl]pyridin-4-yl}oxy)-1,2,3,4-tetrahydronaphthalene-2-carboxamide] yielded an IC50 [1] of no more than 1 µM and an IC50 [2] of less than 0.05 µM.
